Reference: publication PMC5472790
Results are given in words; binding and its absence hold for the method and conditions named. In cells and extracts the contact can be indirect. Some results given as binding are weak or reduced against the parent protein; the word gives no strength.

Sequences of proteins named here, by UniProt entry; tags and fusion partners are left off. Residues count along the entry.
UniProt Q01097, residues 27-1482: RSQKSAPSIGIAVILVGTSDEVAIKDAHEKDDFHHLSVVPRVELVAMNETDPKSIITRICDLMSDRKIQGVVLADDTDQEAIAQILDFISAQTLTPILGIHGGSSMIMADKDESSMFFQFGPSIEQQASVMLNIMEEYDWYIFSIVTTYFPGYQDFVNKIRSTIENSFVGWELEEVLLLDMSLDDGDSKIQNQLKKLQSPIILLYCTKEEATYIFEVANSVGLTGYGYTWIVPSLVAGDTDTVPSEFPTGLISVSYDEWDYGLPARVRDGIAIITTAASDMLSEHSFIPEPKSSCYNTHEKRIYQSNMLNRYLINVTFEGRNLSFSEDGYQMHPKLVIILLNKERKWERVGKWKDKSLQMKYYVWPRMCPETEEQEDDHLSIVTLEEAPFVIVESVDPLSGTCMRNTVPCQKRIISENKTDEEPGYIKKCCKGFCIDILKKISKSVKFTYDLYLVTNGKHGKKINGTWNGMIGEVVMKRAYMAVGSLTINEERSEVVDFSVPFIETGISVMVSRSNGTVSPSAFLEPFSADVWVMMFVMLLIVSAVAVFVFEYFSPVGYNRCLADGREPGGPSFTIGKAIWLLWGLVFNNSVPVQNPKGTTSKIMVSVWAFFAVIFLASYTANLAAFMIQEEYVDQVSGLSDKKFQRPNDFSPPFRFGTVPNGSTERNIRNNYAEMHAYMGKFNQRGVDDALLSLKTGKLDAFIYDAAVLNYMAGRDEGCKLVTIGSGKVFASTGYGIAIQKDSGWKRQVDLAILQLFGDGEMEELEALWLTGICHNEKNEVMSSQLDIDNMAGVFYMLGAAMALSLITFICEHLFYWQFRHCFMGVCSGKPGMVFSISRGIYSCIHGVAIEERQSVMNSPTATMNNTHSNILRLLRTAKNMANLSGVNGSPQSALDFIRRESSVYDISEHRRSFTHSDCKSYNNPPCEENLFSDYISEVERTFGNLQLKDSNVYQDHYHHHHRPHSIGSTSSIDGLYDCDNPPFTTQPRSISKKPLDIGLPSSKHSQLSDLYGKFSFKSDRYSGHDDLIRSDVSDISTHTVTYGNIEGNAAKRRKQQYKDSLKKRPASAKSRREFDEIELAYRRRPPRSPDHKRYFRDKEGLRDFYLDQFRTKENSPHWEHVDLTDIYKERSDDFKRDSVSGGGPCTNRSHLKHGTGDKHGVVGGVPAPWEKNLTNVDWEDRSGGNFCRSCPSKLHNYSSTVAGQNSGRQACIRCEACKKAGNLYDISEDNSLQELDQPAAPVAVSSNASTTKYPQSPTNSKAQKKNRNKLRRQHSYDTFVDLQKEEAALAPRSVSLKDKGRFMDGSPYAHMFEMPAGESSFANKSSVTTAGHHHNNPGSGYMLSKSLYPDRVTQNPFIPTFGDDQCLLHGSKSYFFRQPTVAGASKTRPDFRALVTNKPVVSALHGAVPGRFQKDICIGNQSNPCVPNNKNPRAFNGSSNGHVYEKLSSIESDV

Molecular target: T1, Lrfn2/SALM1 (mouse, endogenous) (mouse (endogenous in mouse brain)) (UniProt Q80TG9)
T1 sequence: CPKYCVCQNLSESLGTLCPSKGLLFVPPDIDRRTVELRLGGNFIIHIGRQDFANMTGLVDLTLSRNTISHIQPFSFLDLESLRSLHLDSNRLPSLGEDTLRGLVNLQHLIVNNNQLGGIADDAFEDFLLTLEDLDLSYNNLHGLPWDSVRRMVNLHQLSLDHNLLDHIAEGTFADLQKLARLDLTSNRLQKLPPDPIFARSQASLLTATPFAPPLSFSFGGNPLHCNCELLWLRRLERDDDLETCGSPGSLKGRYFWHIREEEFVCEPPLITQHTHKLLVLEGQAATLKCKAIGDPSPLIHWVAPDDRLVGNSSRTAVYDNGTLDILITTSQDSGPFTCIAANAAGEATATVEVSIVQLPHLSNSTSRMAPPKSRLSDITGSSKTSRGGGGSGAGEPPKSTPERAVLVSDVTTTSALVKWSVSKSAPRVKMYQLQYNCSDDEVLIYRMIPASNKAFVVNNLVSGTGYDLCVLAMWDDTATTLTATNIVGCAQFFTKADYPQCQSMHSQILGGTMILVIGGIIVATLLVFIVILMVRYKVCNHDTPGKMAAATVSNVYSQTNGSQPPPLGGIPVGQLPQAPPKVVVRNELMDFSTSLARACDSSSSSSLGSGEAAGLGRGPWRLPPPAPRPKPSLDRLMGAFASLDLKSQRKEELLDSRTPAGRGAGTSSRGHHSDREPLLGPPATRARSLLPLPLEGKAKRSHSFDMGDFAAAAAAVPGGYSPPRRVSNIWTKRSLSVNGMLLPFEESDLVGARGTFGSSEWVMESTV
Assay: co-IP; mouse brain (without cerebellum) synaptosomal fraction (250 ug) in RIPA buffer; anti-Lrfn2 antibody or normal rabbit IgG overnight at 4 C, protein A-agarose, five washes with RIPA buffer, immunoblot

GluN2A subunit of NMDAR (mouse, endogenous) (from UniProt P35436 23-1464) (receptor)
binding: binds

GluN2B subunit of NMDAR (mouse, endogenous) (from UniProt Q01097 27-1482) (receptor)
binding: binds
